Assay results as given in publication PMC7269909.
No constants are given. Whether binding was seen depends on the method and setting. Binding seen in cells or lysates may run through a third protein. These calls come from enrichment with a bait or labelling near it, and not all partners need be listed.

Amino acid sequences for entries named in this document (tags omitted).
UniProt Q8TB45: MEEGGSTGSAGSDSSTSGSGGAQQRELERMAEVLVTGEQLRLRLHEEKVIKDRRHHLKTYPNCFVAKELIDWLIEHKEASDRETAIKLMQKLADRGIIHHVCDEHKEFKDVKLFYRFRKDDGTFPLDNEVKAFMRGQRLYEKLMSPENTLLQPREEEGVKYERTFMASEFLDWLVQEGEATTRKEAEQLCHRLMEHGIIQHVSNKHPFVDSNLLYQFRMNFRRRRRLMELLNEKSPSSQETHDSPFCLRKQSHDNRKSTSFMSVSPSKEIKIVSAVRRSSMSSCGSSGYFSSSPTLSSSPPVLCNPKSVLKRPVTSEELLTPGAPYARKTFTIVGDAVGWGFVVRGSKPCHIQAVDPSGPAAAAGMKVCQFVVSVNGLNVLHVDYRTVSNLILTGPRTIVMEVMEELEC

Target: T1, LRRC4 (bait of the CoIP combined with mass spectrometry) (human) (UniProt Q9HBW1)
T1 sequence: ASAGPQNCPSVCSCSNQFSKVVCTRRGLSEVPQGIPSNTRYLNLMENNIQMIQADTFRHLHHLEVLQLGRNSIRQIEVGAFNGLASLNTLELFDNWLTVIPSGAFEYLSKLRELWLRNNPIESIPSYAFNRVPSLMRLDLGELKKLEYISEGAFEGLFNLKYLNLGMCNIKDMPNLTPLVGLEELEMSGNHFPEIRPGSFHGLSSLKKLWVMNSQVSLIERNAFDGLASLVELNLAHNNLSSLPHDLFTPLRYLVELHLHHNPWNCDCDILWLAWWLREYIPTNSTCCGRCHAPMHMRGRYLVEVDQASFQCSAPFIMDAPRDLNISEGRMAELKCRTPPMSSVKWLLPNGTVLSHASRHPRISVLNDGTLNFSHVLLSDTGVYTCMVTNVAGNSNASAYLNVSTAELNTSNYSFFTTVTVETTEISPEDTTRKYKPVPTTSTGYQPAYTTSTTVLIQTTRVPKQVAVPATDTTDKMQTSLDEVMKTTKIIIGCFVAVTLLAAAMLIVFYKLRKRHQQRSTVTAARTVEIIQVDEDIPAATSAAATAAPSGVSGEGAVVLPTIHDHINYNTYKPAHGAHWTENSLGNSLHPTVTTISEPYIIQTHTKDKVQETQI
Test: affinity purification with mass spectrometry; co-immunoprecipitation of LRRC4 combined with mass spectrometry

## DEPTOR (identified by mass spectrometry) (from UniProt Q8TB45 1-409)
  binding: binds
